Measurements: the supplement of paper PMC3334620
The full ranking holds about 33,000 sequences; the median of “E-score (-0.5 to 0.5)” is about -0.015, and the highest 2% start at about 0.3. Some of the results follow.

What follows are sequences tested against T1, Abf1 (UniProt P14164) (assay: PBM E-score (8-mer binding enrichment) (E-score (-0.5 to 0.5)); higher = stronger / more preferred TF binding). Conditions: protein concentration: 200 nM; construct: GST-full length.
T1 sequence: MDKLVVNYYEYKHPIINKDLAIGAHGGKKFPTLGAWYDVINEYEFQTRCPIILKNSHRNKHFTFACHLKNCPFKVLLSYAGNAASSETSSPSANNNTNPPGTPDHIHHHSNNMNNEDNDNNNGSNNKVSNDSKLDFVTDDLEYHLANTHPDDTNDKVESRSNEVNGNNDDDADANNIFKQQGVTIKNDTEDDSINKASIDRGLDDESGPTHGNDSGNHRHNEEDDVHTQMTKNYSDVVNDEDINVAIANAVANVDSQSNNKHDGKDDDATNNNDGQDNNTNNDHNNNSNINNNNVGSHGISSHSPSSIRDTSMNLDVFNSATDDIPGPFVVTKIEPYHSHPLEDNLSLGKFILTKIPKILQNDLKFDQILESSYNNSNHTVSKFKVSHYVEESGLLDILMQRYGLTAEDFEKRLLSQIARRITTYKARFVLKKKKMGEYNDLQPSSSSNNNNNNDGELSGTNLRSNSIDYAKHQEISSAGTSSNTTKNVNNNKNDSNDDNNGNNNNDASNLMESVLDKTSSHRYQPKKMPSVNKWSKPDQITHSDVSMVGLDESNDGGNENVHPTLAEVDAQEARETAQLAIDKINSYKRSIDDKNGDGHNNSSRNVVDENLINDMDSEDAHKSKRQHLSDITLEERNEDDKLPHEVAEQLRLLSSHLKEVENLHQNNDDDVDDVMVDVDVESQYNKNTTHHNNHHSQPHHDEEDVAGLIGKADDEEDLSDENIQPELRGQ
Summary of the method: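 Detection of bound protein used fluorescent anti-GST, with scans normalised by masliner. The proteins were GST-tagged yeast transcription factors applied at about 100-200 nM to universal all-10-mer Agilent arrays made double-stranded by primer extension. Each ungapped eight-base word, pooled with its reverse complement, was scored with an E-score from the Universal PBM Analysis Suite.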

Row | Sequence | PBM E-score
1 | ATGCTGCA | -0.182
2 | ACTTTTCT | 0.111
3 | GCCCCCCA | -0.464
4 | AAACAGTT | 0.0109
5 | GATTGGCC | -0.0494
6 | GCTACAGC | -0.114
7 | ACTGCCGA | 0.0232
8 | CACACAAC | 0.00157
9 | ATAAACAG | -0.186
10 | CGGTTATC | 0.103
11 | GGTAGATA | -0.0169
12 | AATAATGG | 0.146
13 | TAACTAGA | 0.0978
14 | CAATCACG | 0.13
15 | TGTAAGAA | 0.101
16 | TCCGGCAA | -0.187
17 | CGAGGTAA | -0.0859
18 | CTTAGGTA | 0.0631
19 | AACGACTA | 0.269
20 | AGAGACCA | -0.0401
21 | AACCCGCT | -0.17
22 | ACTGAATA | 0.0703
23 | ATGATACA | 0.202
24 | AAATACTT | 0.256
25 | GGCGTAAC | -0.247

Row | Sequence | PBM E-score
26 | ACATACGC | -0.0157
27 | GCCCAGCC | -0.164
28 | AAAACGGT | -0.0129
29 | ATTTTGAC | 0.117
30 | CTACCGAC | -0.0536
31 | AATCACAG | -0.00407
32 | CAATTACG | -0.0276
33 | CTGAAACC | 0.0234
34 | GCAAAACC | -0.145
35 | AAACAAAT | 0.21
36 | ACTGATCC | -0.091
37 | AACCACCC | -0.163
38 | GACTATAA | 0.0257
39 | CAGAACGG | 0.096
40 | ACACGTAT | 0.145
41 | CCCTAGAA | 0.0539
42 | CGTCCCGA | 0.0382
43 | ACGATCAC | 0.274
44 | ATGCTGGC | -0.0605
45 | AAGTACCT | 0.108
46 | CGAAATTC | 0.0688
47 | ACGCCGCG | -0.00778
48 | TACGCGGA | 0.0466
49 | CGGAAATA | 0.156
50 | AACTGCTT | -0.0381

Row | Sequence | PBM E-score
51 | AATAGCCC | 0.0317
52 | ATTGGTTA | 0.0166
53 | CCCGAACA | -0.119
54 | GGTTGCAA | -0.0601
55 | AGAATGTA | 0.0866
56 | AGCAAGAG | -0.0245
57 | GCATATGC | -0.0754
58 | ACGCCGGC | -0.00479
59 | TACACATA | -0.1
60 | AGGTAGCG | 0.152
61 | AGGGCTGA | 0.0256
62 | ACTGAACA | 0.04
63 | GAGGATAA | 0.0968
64 | CTGCTTTC | 0.0309
65 | ATGGACAC | 0.00876
66 | AAGTAAAT | 0.168
67 | CGGTAGCA | 0.0244
68 | ACGCGGCA | -0.126
69 | AGGGCCGA | -0.0484
70 | GAAAAGAA | -0.155
71 | AGCTGTGC | -0.193
72 | AAGCATGC | -0.0558
73 | CAGGATGC | -0.00529
74 | GTATTTAA | 0.217
75 | GGCACACC | -0.248

Row | Sequence | PBM E-score
76 | CGACTAAG | -0.0693
77 | ATTTTCCC | -0.029
78 | TCTGCAGA | -0.187
79 | TCTACGAA | 0.301
80 | CCATACTA | 0.0734
81 | CTCGTACC | 0.184
82 | AGATCTAG | -0.0922
83 | ATTTGATA | 0.254
84 | AGCATACT | -0.0545
85 | AGTGTCGC | -0.00443
86 | AGTGGGAG | 0.0446
87 | ATACACCA | 0.00822
88 | ATAGATAT | 0.073
89 | ACAACCTG | -0.0236
90 | ACGTAAGG | 0.0863
91 | GCCTCGAC | -0.0443
92 | GGAGAATA | 0.0689
93 | ACCTCATG | -0.044
94 | GCCGCAGC | -0.257
95 | ACCGTAGC | -0.0668
96 | GTAATTAC | 0.0663
97 | GTGTCCAA | 0.027
98 | GTTTTAAA | 0.0969
99 | GCGGGTGA | -0.033
100 | CAGAAGCG | -0.0849

Row | Sequence | PBM E-score
101 | CGTGCGGC | 0.218
102 | TAGTTGCA | -0.0201
103 | GATATTTA | 0.282
104 | CGTCAACC | -0.0433
105 | CTGTTATC | 0.146
106 | ACGCTGGA | 0.025
107 | CAGGGAGG | -0.148
108 | CCACGACA | 0.0558
109 | ATTCGGTC | 0.0175
110 | GAGACAGA | 0.0348
111 | GGTGGGCA | -0.216
112 | CCACTACG | -0.0806
113 | AAACGTCA | 0.0403
114 | ACGGACGC | 0.00311
115 | ACCGCGCA | 0.0722
116 | GAACGAGA | 0.0551
117 | GTTGGCCA | -0.209
118 | CAACGCGA | -0.0383
119 | CCGCTTCG | 0.0404
120 | AACAAGCA | -0.104
121 | CGGTTGGA | -0.0976
122 | AGTATCAA | 0.247
123 | TATGTAAA | 0.0564
124 | ATCATCAG | 0.16
125 | CCGGCGCG | -0.208

Row | Sequence | PBM E-score
126 | AGATGGTG | -0.195
127 | ATTGAAAT | 0.165
128 | TTTACAAA | 0.0556
129 | ATTGCAGG | -0.0936
130 | CCCCGTGC | 0.0572
131 | CCTTTATA | -0.056
132 | ACATAACG | 0.201
133 | AGCCTTTA | -0.129
134 | GTGCGAAC | 0.0503
135 | ATCGCGGA | 0.0336
136 | CTACAGTC | 0.0846
137 | ACCACTCC | -0.236
138 | ACAGGTAT | 0.0772
139 | AGAAGATG | 0.0607
140 | CGCGTACC | -0.0297
141 | TACGACAA | 0.298
142 | AAAAGAAT | 0.243
143 | GACGCGAA | -0.0205
144 | CCATGTTC | 0.0915
145 | AGATCCGG | -0.268
146 | ACGATAGA | 0.21
147 | ACGCACGT | 0.105
148 | GTTTGACA | -0.0939
149 | CCCGCCGC | -0.195
150 | TGAAAGAA | 0.236

Row | Sequence | PBM E-score
151 | TCTAAAAA | 0.0197
152 | ACCTTTTC | -0.0974
153 | CTGCAGTA | -0.173
154 | CATCACCA | 0.176
155 | CGGGTAGA | -0.149
156 | AAGGGGAG | -0.111
157 | CCTCCACG | 0.017
158 | ATTTGCGA | 0.117
159 | CAGCGGCA | -0.248
160 | GCGTATCA | 0.109
161 | AAGTCCAC | -0.198
162 | ACTGAGCG | -0.252
163 | GGCGTGAA | -0.0515
164 | CCACTGTA | 0.0565
165 | AATCGGAC | -0.224
166 | CTAGCCTC | -0.24
167 | GAATTGAA | 0.0262
168 | ACCAGTGA | 0.0668
169 | CGACTTGA | 0.0619
170 | GGCTACAA | -0.165
171 | ACGAATGA | 0.304
172 | ACGACGTG | 0.232

Pulled one by one from the list above, 5 records:
Row | Sequence | PBM E-score
85 | AGTGTCGC | -0.00443
122 | AGTATCAA | 0.247
6 | GCTACAGC | -0.114
145 | AGATCCGG | -0.268
105 | CTGTTATC | 0.146

Some of the entries above in a different format.
AAGTCCAC
  PBM E-score: -0.198
CCACTGTA
  PBM E-score: 0.0565
